Reference: the supplement of paper PMC12823440, “Inhibitors supercharge kinase turnover through native proteolytic circuits” (Nature, 2025)
The list shows a part of the results. Hit calls seldom repeat between salt and free forms of one compound.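 In K562 cells expressing nanoluciferase-fused kinases, luminescence was recorded at 4 h intervals between 2 and 18 h, normalized as percent of control with DMSO at 100% and a positive control at 0%. A significant (2 sigma) signal drop marks a time point as decreased. The authors' rule for a hit is not shown and takes in more than the number of time points.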

By UniProt entry, the sequences of proteins in these tests, tags left out. Where a name states a change or a piece, a line headed by the entry shows the natural chain unless it says otherwise.
UniProt Q9Y616: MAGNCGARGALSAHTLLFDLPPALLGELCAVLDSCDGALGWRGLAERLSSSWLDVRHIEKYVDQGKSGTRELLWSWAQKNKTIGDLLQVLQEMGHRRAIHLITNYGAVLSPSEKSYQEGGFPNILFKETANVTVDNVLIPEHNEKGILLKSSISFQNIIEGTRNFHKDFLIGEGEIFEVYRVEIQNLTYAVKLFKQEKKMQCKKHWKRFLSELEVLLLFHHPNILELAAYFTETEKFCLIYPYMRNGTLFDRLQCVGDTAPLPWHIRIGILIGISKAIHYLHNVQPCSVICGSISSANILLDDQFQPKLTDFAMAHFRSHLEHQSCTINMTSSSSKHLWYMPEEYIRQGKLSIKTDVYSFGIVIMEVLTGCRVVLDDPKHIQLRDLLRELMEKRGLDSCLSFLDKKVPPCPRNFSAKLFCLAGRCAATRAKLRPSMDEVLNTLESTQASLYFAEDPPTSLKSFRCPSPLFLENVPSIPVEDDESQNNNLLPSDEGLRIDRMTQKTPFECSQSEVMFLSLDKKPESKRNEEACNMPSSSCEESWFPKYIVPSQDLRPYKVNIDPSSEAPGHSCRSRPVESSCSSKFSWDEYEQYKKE
UniProt P23458: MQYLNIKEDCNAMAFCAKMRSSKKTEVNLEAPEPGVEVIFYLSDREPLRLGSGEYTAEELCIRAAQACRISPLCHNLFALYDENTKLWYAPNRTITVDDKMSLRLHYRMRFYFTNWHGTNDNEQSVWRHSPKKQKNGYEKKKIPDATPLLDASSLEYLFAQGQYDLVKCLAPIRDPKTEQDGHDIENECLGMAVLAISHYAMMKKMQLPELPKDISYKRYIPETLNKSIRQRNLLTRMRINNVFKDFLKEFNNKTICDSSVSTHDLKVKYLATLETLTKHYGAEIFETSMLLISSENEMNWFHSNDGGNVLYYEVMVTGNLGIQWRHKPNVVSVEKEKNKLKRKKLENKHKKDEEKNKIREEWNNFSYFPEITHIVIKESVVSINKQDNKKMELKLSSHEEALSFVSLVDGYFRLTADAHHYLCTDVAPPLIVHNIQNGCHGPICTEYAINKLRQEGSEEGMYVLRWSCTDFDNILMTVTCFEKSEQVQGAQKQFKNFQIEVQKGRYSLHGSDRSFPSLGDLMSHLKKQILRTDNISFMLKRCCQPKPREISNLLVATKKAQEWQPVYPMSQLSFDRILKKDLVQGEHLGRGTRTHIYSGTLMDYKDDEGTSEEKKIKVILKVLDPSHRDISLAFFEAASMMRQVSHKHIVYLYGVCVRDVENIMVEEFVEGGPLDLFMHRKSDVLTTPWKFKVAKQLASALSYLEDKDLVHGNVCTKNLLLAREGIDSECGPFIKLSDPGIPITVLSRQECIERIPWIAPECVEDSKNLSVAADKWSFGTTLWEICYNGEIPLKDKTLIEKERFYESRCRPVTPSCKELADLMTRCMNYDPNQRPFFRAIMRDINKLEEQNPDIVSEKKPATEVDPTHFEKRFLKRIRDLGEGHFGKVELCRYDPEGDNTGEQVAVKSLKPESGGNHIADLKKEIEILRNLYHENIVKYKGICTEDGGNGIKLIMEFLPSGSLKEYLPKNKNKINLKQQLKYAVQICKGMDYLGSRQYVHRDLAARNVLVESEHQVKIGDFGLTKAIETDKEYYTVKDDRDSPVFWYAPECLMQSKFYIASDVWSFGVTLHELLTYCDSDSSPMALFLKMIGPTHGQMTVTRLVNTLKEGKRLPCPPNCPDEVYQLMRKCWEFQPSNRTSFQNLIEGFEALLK
UniProt P06239: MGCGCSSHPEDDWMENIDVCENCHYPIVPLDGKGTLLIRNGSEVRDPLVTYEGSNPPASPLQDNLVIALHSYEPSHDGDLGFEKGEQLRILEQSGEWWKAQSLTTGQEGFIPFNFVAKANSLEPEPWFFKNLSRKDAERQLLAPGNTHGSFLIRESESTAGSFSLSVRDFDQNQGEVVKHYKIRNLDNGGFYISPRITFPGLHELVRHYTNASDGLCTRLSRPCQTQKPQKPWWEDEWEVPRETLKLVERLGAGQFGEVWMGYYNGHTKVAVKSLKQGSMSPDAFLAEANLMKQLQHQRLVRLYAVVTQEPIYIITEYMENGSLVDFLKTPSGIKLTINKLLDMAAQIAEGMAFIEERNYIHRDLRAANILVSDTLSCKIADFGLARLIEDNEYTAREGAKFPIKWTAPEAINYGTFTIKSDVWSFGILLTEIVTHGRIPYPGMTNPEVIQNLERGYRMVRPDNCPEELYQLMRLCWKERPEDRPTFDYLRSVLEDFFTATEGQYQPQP
UniProt P53667: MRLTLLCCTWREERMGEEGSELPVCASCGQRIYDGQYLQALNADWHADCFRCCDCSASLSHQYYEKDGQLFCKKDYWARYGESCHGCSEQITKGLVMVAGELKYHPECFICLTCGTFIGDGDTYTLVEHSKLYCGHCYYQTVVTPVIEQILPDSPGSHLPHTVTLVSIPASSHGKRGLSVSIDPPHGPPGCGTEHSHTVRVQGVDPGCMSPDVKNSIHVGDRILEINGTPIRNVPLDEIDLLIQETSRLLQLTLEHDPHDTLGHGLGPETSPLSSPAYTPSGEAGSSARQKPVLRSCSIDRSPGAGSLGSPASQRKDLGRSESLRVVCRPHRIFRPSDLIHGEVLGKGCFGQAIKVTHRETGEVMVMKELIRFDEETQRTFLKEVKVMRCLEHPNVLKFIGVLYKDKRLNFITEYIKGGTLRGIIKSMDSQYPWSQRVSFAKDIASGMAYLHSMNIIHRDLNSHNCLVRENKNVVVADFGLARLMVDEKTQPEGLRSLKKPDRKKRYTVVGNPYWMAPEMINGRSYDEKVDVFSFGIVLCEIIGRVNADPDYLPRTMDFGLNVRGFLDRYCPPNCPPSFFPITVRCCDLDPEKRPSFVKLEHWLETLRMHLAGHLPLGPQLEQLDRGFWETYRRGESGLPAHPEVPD
UniProt P53671: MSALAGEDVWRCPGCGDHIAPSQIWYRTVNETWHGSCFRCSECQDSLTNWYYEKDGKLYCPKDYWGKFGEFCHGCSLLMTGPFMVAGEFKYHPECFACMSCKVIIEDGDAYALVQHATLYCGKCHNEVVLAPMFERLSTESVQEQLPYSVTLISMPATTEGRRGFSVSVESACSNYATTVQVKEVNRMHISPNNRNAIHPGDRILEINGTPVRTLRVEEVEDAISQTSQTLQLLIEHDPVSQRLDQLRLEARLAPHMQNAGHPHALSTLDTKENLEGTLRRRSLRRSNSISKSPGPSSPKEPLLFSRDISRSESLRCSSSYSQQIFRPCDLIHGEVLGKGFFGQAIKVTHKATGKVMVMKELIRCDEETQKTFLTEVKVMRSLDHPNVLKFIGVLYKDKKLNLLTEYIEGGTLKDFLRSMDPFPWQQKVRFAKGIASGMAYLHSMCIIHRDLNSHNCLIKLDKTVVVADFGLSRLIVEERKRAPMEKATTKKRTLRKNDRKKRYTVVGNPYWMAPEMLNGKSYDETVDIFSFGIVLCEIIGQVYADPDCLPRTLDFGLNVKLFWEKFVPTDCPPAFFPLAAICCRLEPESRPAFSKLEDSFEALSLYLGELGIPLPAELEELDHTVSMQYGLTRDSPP
UniProt Q8IWU2: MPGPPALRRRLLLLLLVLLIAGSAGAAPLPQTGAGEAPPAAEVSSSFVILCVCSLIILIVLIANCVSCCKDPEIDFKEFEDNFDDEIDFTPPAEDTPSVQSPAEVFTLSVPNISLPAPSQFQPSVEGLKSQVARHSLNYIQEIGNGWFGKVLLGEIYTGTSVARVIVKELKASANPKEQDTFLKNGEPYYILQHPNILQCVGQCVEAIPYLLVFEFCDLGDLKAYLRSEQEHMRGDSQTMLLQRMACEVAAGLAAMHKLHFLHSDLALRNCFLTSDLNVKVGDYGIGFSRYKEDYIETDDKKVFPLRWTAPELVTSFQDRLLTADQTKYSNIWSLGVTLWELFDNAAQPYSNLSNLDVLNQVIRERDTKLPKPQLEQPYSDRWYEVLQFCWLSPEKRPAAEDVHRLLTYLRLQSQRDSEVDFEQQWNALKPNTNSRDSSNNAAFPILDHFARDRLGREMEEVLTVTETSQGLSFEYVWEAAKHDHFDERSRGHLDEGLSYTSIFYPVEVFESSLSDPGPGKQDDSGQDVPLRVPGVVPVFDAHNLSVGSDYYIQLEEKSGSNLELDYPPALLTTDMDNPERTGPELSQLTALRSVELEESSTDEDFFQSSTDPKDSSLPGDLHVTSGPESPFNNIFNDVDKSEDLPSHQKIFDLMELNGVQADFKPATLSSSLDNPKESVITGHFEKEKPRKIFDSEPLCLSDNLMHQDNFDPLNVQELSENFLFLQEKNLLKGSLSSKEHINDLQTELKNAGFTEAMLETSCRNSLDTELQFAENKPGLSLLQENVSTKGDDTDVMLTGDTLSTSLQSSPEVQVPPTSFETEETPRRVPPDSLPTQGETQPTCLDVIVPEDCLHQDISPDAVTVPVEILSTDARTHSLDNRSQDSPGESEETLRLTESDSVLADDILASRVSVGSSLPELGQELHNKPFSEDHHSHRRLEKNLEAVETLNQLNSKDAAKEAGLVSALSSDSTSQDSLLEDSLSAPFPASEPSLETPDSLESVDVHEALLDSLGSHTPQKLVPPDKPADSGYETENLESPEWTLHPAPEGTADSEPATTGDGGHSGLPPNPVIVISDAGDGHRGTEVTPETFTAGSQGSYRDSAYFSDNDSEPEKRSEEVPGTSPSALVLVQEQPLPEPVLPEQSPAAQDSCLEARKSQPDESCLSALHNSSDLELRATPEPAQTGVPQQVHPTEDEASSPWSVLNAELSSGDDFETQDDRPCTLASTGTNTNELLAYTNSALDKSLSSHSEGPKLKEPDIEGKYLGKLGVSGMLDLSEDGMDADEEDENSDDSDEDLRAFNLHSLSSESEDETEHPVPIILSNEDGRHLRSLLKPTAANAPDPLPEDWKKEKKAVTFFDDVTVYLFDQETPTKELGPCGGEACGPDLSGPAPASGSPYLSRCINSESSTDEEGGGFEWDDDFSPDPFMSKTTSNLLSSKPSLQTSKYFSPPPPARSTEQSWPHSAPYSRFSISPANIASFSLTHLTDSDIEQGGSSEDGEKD
UniProt P07948: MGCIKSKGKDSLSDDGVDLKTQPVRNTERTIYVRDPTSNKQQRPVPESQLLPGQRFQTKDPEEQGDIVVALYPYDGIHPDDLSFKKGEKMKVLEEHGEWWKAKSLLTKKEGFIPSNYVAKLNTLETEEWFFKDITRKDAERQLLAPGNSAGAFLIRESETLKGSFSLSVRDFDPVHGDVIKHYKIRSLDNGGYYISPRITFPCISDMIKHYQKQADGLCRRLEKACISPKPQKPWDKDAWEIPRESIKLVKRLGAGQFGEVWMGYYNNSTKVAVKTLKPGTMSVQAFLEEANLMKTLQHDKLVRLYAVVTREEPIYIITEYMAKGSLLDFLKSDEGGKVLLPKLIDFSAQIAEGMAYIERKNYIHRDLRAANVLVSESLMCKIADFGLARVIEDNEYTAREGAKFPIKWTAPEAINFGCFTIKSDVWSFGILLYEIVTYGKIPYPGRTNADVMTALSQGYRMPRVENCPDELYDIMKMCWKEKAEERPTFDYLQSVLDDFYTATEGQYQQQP
UniProt Q12851: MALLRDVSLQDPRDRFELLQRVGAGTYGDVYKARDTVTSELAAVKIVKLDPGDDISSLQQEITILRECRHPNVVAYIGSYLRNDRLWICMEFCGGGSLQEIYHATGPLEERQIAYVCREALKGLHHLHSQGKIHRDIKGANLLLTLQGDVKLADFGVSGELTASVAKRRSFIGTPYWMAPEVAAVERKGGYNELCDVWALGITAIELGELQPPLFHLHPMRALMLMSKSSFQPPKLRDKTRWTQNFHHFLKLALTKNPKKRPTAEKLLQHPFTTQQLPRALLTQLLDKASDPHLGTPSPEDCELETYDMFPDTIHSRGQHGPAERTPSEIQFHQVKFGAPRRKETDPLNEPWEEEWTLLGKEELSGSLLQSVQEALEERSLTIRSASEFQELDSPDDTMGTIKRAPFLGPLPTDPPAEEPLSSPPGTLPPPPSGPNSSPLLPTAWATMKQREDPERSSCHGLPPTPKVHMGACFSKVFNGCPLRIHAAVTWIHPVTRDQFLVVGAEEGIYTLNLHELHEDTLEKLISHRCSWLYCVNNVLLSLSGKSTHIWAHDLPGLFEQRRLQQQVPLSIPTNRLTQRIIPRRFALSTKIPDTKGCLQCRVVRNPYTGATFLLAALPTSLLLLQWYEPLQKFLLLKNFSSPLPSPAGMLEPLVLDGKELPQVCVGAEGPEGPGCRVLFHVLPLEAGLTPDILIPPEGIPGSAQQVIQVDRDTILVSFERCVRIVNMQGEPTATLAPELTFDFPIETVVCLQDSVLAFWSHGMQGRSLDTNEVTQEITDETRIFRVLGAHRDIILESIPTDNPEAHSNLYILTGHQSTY

Experiments:
Assay in all cases: kinase-Nluc reporter destabilization hit call (1 = scored as downregulated) (binary); higher = compound decreases kinase abundance
Conditions in all cases: K562; 2-18 h
[1] = biological target: IRAK3 (UniProt Q9Y616)
[2] = biological target: JAK1 (UniProt P23458)
[3] = biological target: LCK (UniProt P06239)
[4] = biological target: LIMK1 (UniProt P53667)
[5] = biological target: LIMK2 (UniProt P53671)
[6] = biological target: LMTK2 (UniProt Q8IWU2)
[7] = biological target: LYN (UniProt P07948)
[8] = biological target: MAP2K1 (UniProt Q02750)
[9] = biological target: MAP2K2 (UniProt P36507)
[10] = biological target: MAP4K2 (UniProt Q12851)

Row | SMILES | kinase-Nluc reporter destabilization hit call [1] | kinase-Nluc reporter destabilization hit call [2] | kinase-Nluc reporter destabilization hit call [3] | kinase-Nluc reporter destabilization hit call [4] | kinase-Nluc reporter destabilization hit call [5] | kinase-Nluc reporter destabilization hit call [6] | kinase-Nluc reporter destabilization hit call [7] | kinase-Nluc reporter destabilization hit call [8] | kinase-Nluc reporter destabilization hit call [9] | kinase-Nluc reporter destabilization hit call [10]
1 | CS(=O)(=O)N1CCc2c(-c3cnc(N)nc3)nc(N3CCOCC3)nc21 (10 µM) | inactive: 0 | inactive: 0 | inactive: 0 | inactive: 0 | inactive: 0 | inactive: 0 | inactive: 0 | inactive: 0 | inactive: 0 | inactive: 0
2 | COc1ccc(C(=O)c2cn(C(C)C)c3ncnc(N)c23)cc1NC(=O)Nc1ccc(Cl)cc1Cl (10 µM) | inactive: 0 | inactive: 0 | inactive: 0 | inactive: 0 | active: 1 | inactive: 0 | inactive: 0 | inactive: 0 | inactive: 0 | inactive: 0
3 | O=S(=O)(c1cccc2c(Cl)cccc12)N1CCCNCC1 (10 µM) | inactive: 0 | inactive: 0 | inactive: 0 | inactive: 0 | inactive: 0 | inactive: 0 | inactive: 0 | inactive: 0 | inactive: 0 | inactive: 0
4 | O=C1c2cccc(O)c2C(=O)c2c(O)cccc21 [Danthron] (10 µM) | inactive: 0 | inactive: 0 | inactive: 0 | inactive: 0 | inactive: 0 | inactive: 0 | inactive: 0 | inactive: 0 | inactive: 0 | inactive: 0
5 | COc1ccc(C2CC(c3ccc(Cl)cc3)=NN2c2nc(-c3ccncc3)cs2)cc1 (stereo not given) [mTOR inhibitor-8] (10 µM) | inactive: 0 | inactive: 0 | inactive: 0 | inactive: 0 | inactive: 0 | inactive: 0 | inactive: 0 | inactive: 0 | inactive: 0 | inactive: 0
6 | C=CC(=O)Nc1cc(C(=O)NC)cc(-c2n[nH]c3ccccc23)c1 (10 µM) | inactive: 0 | inactive: 0 | inactive: 0 | inactive: 0 | inactive: 0 | inactive: 0 | inactive: 0 | inactive: 0 | inactive: 0 | inactive: 0
7 | Cc1cc(F)c(Nc2ncnc3cc(OCc4ccccc4)ccc23)cc1O (10 µM) | inactive: 0 | inactive: 0 | inactive: 0 | inactive: 0 | inactive: 0 | inactive: 0 | inactive: 0 | inactive: 0 | inactive: 0 | inactive: 0
8 | CC(C)n1nc(C#Cc2ccccc2)c2c(N)ncnc21 (10 µM) | inactive: 0 | inactive: 0 | inactive: 0 | inactive: 0 | inactive: 0 | inactive: 0 | inactive: 0 | inactive: 0 | inactive: 0 | inactive: 0
9 | Nc1nc2c(ncn2COCCO)c(=O)[nH]1 [Acyclovir] (10 µM) | inactive: 0 | inactive: 0 | inactive: 0 | inactive: 0 | inactive: 0 | inactive: 0 | inactive: 0 | inactive: 0 | inactive: 0 | inactive: 0
10 | C[C@@H]1CC[C@]2(C(=O)O)CC[C@]3(C)C(=CC[C@@H]4[C@@]5(C)CC[C@H](O)[C@@](C)(CO)[C@@H]5CC[C@]43C)[C@@H]2[C@]1(C)O [Rotundic acid] (10 µM) | inactive: 0 | inactive: 0 | inactive: 0 | inactive: 0 | inactive: 0 | inactive: 0 | inactive: 0 | inactive: 0 | inactive: 0 | inactive: 0
11 | OCCC#Cc1nc(-c2ccc(F)cc2)c(-c2ccncc2)n1CCCc1ccccc1 (2.5 µM) | inactive: 0 | inactive: 0 | inactive: 0 | inactive: 0 | inactive: 0 | inactive: 0 | inactive: 0 | inactive: 0 | inactive: 0 | inactive: 0
12 | CN(C)C(=O)c1cc2cnc(Nc3ccc(NC(=O)C4(C(=O)Nc5ccc(F)cc5)CC4)cc3)nc2n1C1CCCC1 (2 µM) | inactive: 0 | inactive: 0 | inactive: 0 | inactive: 0 | inactive: 0 | inactive: 0 | inactive: 0 | inactive: 0 | inactive: 0 | inactive: 0
13 | C[C@@]12CCc3occc3[C@H]1CC[C@@]13C[C@@H](CC[C@H]12)[C@@](O)(CO)C3 [Cafestol] (10 µM) | inactive: 0 | inactive: 0 | inactive: 0 | inactive: 0 | inactive: 0 | inactive: 0 | inactive: 0 | inactive: 0 | inactive: 0 | inactive: 0
14 | CNS(=O)(=O)C[C@H]1CC[C@H](N(C)c2[nH]cnc3nccc2-3)CC1 [Oclacitinib (maleate)] (10 µM) | inactive: 0 | inactive: 0 | inactive: 0 | inactive: 0 | inactive: 0 | inactive: 0 | inactive: 0 | inactive: 0 | inactive: 0 | inactive: 0
15 | O=C(NCc1cccc(O)c1)c1cc2cc(F)ccc2[nH]1 (10 µM) | inactive: 0 | inactive: 0 | inactive: 0 | inactive: 0 | inactive: 0 | inactive: 0 | inactive: 0 | inactive: 0 | inactive: 0 | inactive: 0
16 | CC(C)n1cnnc1-c1cccc(NC(=O)c2cc3ccc(F)cc3[nH]2)n1 (2.5 µM) | inactive: 0 | inactive: 0 | inactive: 0 | inactive: 0 | inactive: 0 | inactive: 0 | inactive: 0 | inactive: 0 | inactive: 0 | inactive: 0
17 | COC[C@H]1Cn2cc(-c3nc(Nc4ccnn4C)ncc3C)nc2C(=O)N1Cc1ccc(F)c(F)c1 (10 µM) | inactive: 0 | inactive: 0 | inactive: 0 | inactive: 0 | inactive: 0 | inactive: 0 | inactive: 0 | inactive: 0 | inactive: 0 | inactive: 0
18 | CN(C/C=C/C(=O)Nc1ccc(C(=O)Nc2cccc(Nc3ncc(Cl)c(-c4c[nH]c5ccccc45)n3)c2)cc1)CCCNC(=O)NCCOCCOCCOCCNC(=O)CCCC[C@@H]1SC[C@@H]2NC(=O)N[C@@H]21 (2.5 µM) | inactive: 0 | inactive: 0 | inactive: 0 | inactive: 0 | inactive: 0 | inactive: 0 | inactive: 0 | inactive: 0 | inactive: 0 | inactive: 0
19 | N#C/C(=C\c1ccc[nH]1)c1ccc(Cl)c(Cl)c1 (2.5 µM) | inactive: 0 | inactive: 0 | inactive: 0 | inactive: 0 | inactive: 0 | inactive: 0 | inactive: 0 | inactive: 0 | inactive: 0 | inactive: 0
20 | CC(C)[C@H](CO)Nc1nc(Nc2ccc(C(=O)O)c(Cl)c2)c2ncn(C(C)C)c2n1 [Purvalanol B] (10 µM) | inactive: 0 | inactive: 0 | inactive: 0 | inactive: 0 | inactive: 0 | inactive: 0 | inactive: 0 | inactive: 0 | inactive: 0 | inactive: 0
21 | Cc1cc(Nc2ncc(Cl)c(Nc3ccccc3S(=O)(=O)C(C)C)n2)c(OC(C)C)cc1C1CCN(CC(=O)NCCNc2cccc3c2C(=O)N(C2CCC(=O)NC2=O)C3=O)CC1 (stereo not given) (10 µM) | inactive: 0 | inactive: 0 | inactive: 0 | inactive: 0 | inactive: 0 | inactive: 0 | inactive: 0 | inactive: 0 | inactive: 0 | inactive: 0
22 | C[C@H]1CNC(=O)c2cnn3ccc(nc23)N[C@H](C)c2cc(F)ccc2O1 [Repotrectinib] (2.5 µM) | inactive: 0 | inactive: 0 | inactive: 0 | inactive: 0 | inactive: 0 | inactive: 0 | inactive: 0 | inactive: 0 | inactive: 0 | inactive: 0
23 | O=C(c1ccc(NS(=O)(=O)c2cccc3cccnc23)cc1)N1CCN(CC2CC2)CC1 [Mitapivat] (10 µM) | inactive: 0 | inactive: 0 | inactive: 0 | inactive: 0 | inactive: 0 | inactive: 0 | inactive: 0 | inactive: 0 | inactive: 0 | inactive: 0
24 | Cc1cc([N+](=O)[O-])c(NS(=O)(=O)c2cccc(C(=O)O)c2)cc1-c1cccnc1 [Alofanib] (10 µM) | inactive: 0 | inactive: 0 | inactive: 0 | inactive: 0 | inactive: 0 | inactive: 0 | inactive: 0 | inactive: 0 | inactive: 0 | inactive: 0
25 | NC(=O)c1nc(-c2c(F)cccc2Cl)oc1Nc1ccc(C(=O)N2CCOCC2)cc1 (10 µM) | inactive: 0 | inactive: 0 | inactive: 0 | inactive: 0 | inactive: 0 | inactive: 0 | inactive: 0 | inactive: 0 | inactive: 0 | inactive: 0
26 | O=C(N/N=C/c1ccc([N+](=O)[O-])o1)c1ccc(O)cc1 [Nifuroxazide] (10 µM) | inactive: 0 | inactive: 0 | inactive: 0 | inactive: 0 | inactive: 0 | inactive: 0 | inactive: 0 | inactive: 0 | inactive: 0 | inactive: 0
27 | CC(=O)Nc1nc(C)c(-c2ccc(Cl)c(S(=O)(=O)NCCO)c2)s1 (10 µM) | inactive: 0 | inactive: 0 | inactive: 0 | inactive: 0 | inactive: 0 | inactive: 0 | inactive: 0 | inactive: 0 | inactive: 0 | inactive: 0
28 | COC(=O)/C=C/c1ccc(O)c(OC)c1 [Ferulic acid methyl ester] (10 µM) | inactive: 0 | inactive: 0 | inactive: 0 | inactive: 0 | inactive: 0 | inactive: 0 | inactive: 0 | inactive: 0 | inactive: 0 | inactive: 0
29 | C=CC(=O)N1CCN(c2nc(OC[C@@H]3CCCN3C)nc3c2CCN(c2cccc4cccc(C)c24)C3)C[C@@H]1CC#N (2.5 µM) | inactive: 0 | inactive: 0 | inactive: 0 | inactive: 0 | inactive: 0 | inactive: 0 | inactive: 0 | inactive: 0 | inactive: 0 | inactive: 0
30 | O=C(CCc1ccc2n1[B-](F)(F)[N+]1=C(c3ccc[nH]3)C=CC1=C2)ON1C(=O)CCC1=O [Py-BODIPY-NHS ester] (2.5 µM) | inactive: 0 | inactive: 0 | inactive: 0 | inactive: 0 | inactive: 0 | inactive: 0 | inactive: 0 | inactive: 0 | inactive: 0 | inactive: 0

One compound at a time, as listed above. Values in the order: kinase-Nluc reporter destabilization hit call [1] | kinase-Nluc reporter destabilization hit call [2] | kinase-Nluc reporter destabilization hit call [3] | kinase-Nluc reporter destabilization hit call [4] | kinase-Nluc reporter destabilization hit call [5] | kinase-Nluc reporter destabilization hit call [6] | kinase-Nluc reporter destabilization hit call [7] | kinase-Nluc reporter destabilization hit call [8] | kinase-Nluc reporter destabilization hit call [9] | kinase-Nluc reporter destabilization hit call [10]
`COc1ccc(C(=O)c2cn(C(C)C)c3ncnc(N)c23)cc1NC(=O)Nc1ccc(Cl)cc1Cl` (10 µM) is listed as inactive: 0 | inactive: 0 | inactive: 0 | inactive: 0 | active: 1 | inactive: 0 | inactive: 0 | inactive: 0 | inactive: 0 | inactive: 0
`NC(=O)c1nc(-c2c(F)cccc2Cl)oc1Nc1ccc(C(=O)N2CCOCC2)cc1` (10 µM) is listed as inactive: 0 | inactive: 0 | inactive: 0 | inactive: 0 | inactive: 0 | inactive: 0 | inactive: 0 | inactive: 0 | inactive: 0 | inactive: 0
